From paper PMC13551775

Molecular target: T1, Special AT-rich binding protein 2 (SATB2), GFP-tagged (human) (UniProt Q9UPW6)
T1 sequence: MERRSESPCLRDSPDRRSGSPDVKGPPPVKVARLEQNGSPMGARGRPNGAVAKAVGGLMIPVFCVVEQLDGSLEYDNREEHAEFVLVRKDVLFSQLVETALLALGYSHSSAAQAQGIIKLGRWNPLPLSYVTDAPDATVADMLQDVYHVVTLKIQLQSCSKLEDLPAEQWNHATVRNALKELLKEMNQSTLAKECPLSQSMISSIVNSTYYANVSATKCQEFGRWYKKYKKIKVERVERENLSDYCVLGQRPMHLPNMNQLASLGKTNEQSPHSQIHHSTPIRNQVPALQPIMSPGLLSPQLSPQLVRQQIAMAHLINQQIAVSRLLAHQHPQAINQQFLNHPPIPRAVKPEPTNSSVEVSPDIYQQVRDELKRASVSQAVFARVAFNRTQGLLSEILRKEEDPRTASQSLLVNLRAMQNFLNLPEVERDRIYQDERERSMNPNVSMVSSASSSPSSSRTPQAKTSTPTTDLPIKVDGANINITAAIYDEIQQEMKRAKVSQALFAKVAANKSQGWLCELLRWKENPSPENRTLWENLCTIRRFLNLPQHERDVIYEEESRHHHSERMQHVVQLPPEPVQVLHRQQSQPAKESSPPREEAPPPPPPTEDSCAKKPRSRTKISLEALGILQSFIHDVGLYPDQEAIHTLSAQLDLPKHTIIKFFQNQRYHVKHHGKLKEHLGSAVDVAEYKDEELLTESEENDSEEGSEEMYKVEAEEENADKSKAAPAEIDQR
Experiment: co-IP; lysate (Pierce IP Lysis Buffer, sonicated) of SATB2-GFP-circ-3×FLAG tagged BEAS-2B cells; Dynabeads Protein G pre-bound to SATB2 or anti-FLAG M2 antibody, overnight at 4 °C, 200 µg lysate protein; western blot

binding: binds
Substance: Lamin (human (endogenous in BEAS-2B))

These are yes or no findings as the source states them, for the method shown. Binding seen in cells or lysates may run through a third protein. Binding calls can cover weak binding; strength is not graded here. Sequences can lack the tags named with a protein.
